Data as given in PubChem BioAssay AID1259425 (University of Nebraska Medical Center, 2018).
The whole screen tested about 14,000 reagents; this is a random part of them. The record does not give: the time to read-out.

- Test: 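Find knockdowns that reproduce the gene expression pattern seen when KSR1 is lost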 (primary screen)
- System: HCT116 human colon cancer cells
- Reagents: siRNA pool against human genes, 50 nM siRNA
- Measurement: 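After 50 nM siRNA pool, branched-DNA assay measures six marker transcripts per well, minus blank, normalised to the geometric mean of two housekeeping transcripts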
- Reading the numbers: BNIP3L mRNA: higher = more BNIP3L transcript after knockdown; NDRG1 mRNA: higher = more NDRG1 transcript after knockdown; BNIP3 mRNA: higher = more BNIP3 transcript after knockdown; ALDOC mRNA: higher = more ALDOC transcript after knockdown; ACSL5 mRNA: higher = more ACSL5 transcript after knockdown

no.	gene symbol	BNIP3L mRNA, set 1	NDRG1 mRNA, set 1	BNIP3 mRNA, set 1	ALDOC mRNA, set 1	ACSL5 mRNA, set 1
1	AP3S2 (GeneID 10239)	0.128	0.389	0.323	0.0913	0.158
2	LCMT2 (GeneID 9836)	0.108	0.138	0.277	0.0442	0.138
3	CTSW (GeneID 1521)	0.0273	0.0913	0.259	0.00165	0.15
4	ATRX (GeneID 546)	0.136	0.162	0.309	0.021	0.227
5	ZBTB48 (GeneID 3104)	0.13	0.157	0.459	0.0218	0.167
6	SYNPO (GeneID 11346)	0.151	0.216	0.461	0.0295	0.229
7	ITGA4 (GeneID 3676)	0.0611	0.0697	0.232	0.0247	0.116
8	CFAP263 (GeneID 29070)	0.074	0.755	0.238	0.0295	0.161
9	RAB17 (GeneID 64284)	0.0699	0.342	0.29	0.0607	0.146
10	RPRM (GeneID 56475)	0.177	0.0942	0.352	0.0304	0.177
11	GNG4 (GeneID 2786)	0.0919	0.0908	0.363	0.0133	0.136
12	SAGE1 (GeneID 55511)	0.111	0.0765	0.237	0.0174	0.183
13	GGH (GeneID 8836)	0.161	0.316	0.238	0.0446	0.3
14	MEMO1 (GeneID 51072)	0.117	0.324	0.405	0.0225	0.259
15	RIMS3 (GeneID 9783)	0.0931	0.331	0.219	0.0201	0.137
16	LFNG (GeneID 3955)	0.0724	0.412	0.317	0.0149	0.238
17	HYCC1 (GeneID 84668)	0.155	0.0725	0.289	0.0243	0.129
18	CCT8 (GeneID 10694)	0.153	0.242	0.212	0.0609	0.108
19	ITGAL (GeneID 3683)	0.0378	0.198	0.278	0.0435	0.149
20	GUCA2B (GeneID 2981)	0.0799	0.0766	0.108	0.0129	0.0663
